Laboratory results published in the supplement of paper PMC10849652.
This is one part of the list.

The chains behind the UniProt entries cited, without tags or fusion partners. Where a name states a change or a piece, a line headed by the entry shows the natural chain unless it says otherwise.
UniProt Q8NI60: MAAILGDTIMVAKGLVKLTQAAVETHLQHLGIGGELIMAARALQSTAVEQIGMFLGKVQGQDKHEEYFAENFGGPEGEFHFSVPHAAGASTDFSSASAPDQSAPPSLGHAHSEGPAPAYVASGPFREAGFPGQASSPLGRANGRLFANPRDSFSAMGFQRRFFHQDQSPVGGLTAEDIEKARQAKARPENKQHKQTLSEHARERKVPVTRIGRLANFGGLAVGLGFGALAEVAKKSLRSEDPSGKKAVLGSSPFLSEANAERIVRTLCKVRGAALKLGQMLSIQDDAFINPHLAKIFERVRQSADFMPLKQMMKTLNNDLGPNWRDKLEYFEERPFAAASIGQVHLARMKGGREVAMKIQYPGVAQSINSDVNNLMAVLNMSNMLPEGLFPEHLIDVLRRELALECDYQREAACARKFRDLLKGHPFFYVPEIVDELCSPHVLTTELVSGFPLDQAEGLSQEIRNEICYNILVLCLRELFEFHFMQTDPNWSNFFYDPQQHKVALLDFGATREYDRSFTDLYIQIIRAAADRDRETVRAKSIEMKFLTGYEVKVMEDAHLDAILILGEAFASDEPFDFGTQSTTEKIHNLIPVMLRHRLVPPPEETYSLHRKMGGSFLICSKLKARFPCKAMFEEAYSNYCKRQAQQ
UniProt Q86VU5: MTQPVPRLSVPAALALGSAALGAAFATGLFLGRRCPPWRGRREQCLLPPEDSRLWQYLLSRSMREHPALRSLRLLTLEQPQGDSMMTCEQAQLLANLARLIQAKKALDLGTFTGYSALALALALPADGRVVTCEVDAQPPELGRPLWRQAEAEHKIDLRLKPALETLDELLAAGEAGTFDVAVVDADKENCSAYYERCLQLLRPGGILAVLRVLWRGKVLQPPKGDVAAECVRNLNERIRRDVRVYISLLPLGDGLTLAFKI
UniProt Q96HD1: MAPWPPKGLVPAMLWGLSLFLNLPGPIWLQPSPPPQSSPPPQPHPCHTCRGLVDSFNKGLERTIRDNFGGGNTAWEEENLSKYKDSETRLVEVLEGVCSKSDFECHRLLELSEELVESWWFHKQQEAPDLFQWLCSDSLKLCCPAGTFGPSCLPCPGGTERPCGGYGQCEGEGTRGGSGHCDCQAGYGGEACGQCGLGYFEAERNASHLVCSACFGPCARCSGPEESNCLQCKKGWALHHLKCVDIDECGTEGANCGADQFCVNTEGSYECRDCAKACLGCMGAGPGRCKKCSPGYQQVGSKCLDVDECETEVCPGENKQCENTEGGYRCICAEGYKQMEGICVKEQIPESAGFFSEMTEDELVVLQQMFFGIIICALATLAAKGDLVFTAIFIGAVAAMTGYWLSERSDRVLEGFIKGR
UniProt Q92793, whole entry, looked up: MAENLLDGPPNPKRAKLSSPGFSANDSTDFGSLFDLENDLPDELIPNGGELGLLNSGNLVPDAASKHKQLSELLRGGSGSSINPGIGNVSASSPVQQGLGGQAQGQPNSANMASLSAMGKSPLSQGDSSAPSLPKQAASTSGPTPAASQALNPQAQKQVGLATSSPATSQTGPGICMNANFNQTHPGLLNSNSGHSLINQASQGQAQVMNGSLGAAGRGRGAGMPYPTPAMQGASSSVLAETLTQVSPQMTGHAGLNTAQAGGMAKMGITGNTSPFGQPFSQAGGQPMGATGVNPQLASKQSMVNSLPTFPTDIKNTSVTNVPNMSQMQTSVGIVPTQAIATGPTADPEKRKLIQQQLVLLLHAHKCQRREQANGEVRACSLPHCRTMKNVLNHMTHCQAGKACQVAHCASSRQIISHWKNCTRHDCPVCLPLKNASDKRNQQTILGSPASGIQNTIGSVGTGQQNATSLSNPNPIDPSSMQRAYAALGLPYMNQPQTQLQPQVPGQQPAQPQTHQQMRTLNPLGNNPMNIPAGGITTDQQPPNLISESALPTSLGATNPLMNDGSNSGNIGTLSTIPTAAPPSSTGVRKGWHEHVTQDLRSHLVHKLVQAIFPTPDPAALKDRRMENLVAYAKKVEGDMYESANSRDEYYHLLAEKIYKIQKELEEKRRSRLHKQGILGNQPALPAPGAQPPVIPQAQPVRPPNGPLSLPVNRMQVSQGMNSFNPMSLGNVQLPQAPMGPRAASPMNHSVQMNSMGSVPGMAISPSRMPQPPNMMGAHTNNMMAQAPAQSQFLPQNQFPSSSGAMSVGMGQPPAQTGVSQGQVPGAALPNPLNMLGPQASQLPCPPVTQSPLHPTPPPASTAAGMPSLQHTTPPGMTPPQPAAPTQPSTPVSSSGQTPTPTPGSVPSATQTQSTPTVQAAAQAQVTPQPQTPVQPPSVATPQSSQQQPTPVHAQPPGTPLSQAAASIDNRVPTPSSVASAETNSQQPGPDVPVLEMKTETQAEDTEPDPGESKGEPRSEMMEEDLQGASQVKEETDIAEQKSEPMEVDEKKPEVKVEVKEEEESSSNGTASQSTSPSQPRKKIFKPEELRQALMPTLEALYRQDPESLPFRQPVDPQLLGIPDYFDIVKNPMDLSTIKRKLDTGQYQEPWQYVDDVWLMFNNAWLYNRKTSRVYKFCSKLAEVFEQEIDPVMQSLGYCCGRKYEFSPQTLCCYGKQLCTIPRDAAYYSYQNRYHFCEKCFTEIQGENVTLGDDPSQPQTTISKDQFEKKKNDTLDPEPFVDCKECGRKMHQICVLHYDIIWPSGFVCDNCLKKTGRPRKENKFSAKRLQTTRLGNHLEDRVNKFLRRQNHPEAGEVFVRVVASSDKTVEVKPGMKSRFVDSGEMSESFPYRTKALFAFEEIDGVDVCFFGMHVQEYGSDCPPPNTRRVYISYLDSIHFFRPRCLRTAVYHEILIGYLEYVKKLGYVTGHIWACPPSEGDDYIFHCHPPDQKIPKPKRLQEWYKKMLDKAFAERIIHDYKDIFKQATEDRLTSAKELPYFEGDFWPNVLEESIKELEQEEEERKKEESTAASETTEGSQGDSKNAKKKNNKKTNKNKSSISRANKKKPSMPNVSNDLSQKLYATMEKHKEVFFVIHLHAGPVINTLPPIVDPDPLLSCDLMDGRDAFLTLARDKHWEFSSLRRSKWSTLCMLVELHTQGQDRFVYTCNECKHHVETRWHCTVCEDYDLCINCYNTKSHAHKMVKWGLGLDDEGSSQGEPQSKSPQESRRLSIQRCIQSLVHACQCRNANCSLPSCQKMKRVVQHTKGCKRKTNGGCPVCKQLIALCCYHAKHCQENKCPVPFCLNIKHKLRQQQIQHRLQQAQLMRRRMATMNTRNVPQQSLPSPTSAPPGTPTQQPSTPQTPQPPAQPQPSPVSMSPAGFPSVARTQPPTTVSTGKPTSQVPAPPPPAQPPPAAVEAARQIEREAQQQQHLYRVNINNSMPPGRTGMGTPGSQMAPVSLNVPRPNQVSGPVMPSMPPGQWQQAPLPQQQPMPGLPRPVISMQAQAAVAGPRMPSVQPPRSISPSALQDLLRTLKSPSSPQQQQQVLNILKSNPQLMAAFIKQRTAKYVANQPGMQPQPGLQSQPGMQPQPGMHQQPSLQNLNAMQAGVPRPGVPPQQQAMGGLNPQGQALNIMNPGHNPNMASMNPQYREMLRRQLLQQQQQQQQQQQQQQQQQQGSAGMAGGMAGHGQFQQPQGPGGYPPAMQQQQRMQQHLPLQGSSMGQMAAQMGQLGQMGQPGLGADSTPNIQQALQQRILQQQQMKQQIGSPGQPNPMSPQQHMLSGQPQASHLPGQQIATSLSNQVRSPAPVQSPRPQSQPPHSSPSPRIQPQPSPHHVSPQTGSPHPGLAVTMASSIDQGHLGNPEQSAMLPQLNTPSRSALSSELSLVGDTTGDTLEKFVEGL
UniProt Q9Y6M4: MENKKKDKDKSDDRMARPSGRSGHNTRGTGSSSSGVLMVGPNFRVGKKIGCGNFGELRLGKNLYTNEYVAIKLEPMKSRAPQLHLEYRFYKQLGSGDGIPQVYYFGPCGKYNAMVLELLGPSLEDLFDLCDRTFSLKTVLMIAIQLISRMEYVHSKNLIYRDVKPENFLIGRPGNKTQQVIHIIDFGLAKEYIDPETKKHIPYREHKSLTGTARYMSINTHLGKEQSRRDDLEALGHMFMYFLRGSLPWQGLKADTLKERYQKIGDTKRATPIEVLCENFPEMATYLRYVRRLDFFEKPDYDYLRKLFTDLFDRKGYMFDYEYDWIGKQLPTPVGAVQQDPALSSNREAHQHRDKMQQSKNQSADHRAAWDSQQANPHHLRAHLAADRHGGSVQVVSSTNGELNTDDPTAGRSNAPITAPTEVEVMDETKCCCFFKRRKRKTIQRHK
UniProt Q9BRF8, whole entry, looked up: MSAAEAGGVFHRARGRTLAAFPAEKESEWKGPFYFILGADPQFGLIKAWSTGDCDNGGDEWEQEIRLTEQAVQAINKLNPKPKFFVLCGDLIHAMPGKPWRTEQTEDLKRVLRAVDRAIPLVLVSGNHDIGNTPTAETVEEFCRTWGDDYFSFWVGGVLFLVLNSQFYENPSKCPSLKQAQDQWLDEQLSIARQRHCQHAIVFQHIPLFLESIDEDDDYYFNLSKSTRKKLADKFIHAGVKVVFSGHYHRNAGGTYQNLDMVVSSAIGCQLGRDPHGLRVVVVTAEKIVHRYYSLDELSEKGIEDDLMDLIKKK
UniProt P31146: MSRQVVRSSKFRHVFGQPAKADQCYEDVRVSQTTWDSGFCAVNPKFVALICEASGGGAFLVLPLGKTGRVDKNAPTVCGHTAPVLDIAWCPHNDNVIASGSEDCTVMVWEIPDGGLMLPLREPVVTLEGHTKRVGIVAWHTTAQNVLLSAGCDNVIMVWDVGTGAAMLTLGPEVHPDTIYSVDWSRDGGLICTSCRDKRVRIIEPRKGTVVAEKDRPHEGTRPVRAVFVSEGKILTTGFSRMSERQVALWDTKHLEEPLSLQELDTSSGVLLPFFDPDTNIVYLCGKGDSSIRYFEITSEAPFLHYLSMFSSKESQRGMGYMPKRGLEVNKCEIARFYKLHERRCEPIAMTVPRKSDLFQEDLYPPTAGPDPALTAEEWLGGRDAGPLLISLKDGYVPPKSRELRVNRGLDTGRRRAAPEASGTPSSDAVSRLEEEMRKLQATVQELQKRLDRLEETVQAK
UniProt Q96SW2: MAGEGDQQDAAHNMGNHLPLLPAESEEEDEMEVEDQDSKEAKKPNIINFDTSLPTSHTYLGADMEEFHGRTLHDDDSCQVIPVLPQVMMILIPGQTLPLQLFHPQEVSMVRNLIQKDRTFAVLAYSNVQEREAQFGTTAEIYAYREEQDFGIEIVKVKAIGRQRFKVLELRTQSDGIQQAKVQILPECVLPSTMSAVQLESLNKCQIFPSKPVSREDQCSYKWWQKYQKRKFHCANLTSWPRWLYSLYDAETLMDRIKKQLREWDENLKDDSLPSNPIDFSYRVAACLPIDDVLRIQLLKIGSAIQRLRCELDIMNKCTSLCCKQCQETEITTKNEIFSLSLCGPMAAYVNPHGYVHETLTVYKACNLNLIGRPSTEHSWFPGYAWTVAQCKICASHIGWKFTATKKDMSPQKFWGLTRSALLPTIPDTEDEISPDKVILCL
UniProt Q9NQ92: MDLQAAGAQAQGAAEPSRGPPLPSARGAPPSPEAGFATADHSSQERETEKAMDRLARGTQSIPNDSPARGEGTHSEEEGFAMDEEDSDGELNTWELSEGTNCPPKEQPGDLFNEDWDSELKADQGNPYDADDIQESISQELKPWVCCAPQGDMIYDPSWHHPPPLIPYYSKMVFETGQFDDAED
UniProt O14579: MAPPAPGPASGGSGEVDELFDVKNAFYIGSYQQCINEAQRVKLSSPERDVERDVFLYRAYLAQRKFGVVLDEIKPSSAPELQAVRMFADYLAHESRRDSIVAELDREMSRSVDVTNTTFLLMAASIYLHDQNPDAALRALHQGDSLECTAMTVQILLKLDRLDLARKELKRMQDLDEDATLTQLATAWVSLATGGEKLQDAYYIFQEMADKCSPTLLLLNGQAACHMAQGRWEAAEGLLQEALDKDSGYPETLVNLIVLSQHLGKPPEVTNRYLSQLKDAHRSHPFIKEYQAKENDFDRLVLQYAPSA
UniProt Q6UXH1: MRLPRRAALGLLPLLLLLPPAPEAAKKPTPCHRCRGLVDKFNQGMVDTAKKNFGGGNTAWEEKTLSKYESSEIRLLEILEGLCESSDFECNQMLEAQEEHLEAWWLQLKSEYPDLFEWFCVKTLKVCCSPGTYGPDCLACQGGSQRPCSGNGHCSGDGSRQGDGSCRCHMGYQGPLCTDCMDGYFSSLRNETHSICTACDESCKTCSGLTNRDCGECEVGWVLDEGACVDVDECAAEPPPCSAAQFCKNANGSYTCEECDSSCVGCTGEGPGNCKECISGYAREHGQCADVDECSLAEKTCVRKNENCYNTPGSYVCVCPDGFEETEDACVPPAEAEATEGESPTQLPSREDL
UniProt P13073, whole entry, looked up: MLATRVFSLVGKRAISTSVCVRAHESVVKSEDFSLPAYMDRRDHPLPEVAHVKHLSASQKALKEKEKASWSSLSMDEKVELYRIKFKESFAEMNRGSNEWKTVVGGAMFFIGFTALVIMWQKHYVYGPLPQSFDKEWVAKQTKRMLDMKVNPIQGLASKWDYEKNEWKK

Key:
Assay in all cases: log2 fold change, soluble protein after heating vs DMSO (PISA); higher = thermal stabilisation; K562 cells, 10 uM, 30 min; active = over 0.2 and 3.5 SD of the protein, either way, in both replicates (recomputed)
[1] = compound: CS(=O)(=O)c1ccc(-c2cnc(N)c(C(=O)Nc3ccccc3)n2)cc1
Outline: (§1)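 Values are thermal stability changes relative to control samples and are taken from duplicates. They are stated as log2 fold changes. Before quantification by TMTpro 16plex LC-MS/MS with equalised channel sums, K562 cells at 2×10^6 cells/mL were treated with 10 μM compound for 30 min, heated in aliquots for 3 min across 48°C-58°C, pooled, extracted in PBS with 0.5% NP-40 at 4°C, and centrifuged at 21,000xg for 90 min to give the soluble supernatant.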

crizotinib = compound: C[C@@H](Oc1cc(-c2cnn(C3CCNCC3)c2)cnc1N)c1c(Cl)ccc(F)c1Cl [crizotinib]
Outline: as §1

[2] = compound: C[C@@H]1COCCN1C2=NC(=NC(=C2)C3(CC3)S(=O)(=O)C)C4=C5C=CNC5=CC=C4
Outline: as §1

[3] = compound: C[C@H](C1=CC=C(C=C1)C(=O)NC2=C3C=CNC3=NC=C2)N
Outline: as §1

duvelisib = compound: C[C@H](Nc1ncnc2nc[nH]c12)c1cc2cccc(Cl)c2c(=O)n1-c1ccccc1 [duvelisib]
Outline: as §1

gandotinib = compound: Cc1cc(Nc2cc(CN3CCOCC3)c3nc(C)c(Cc4ccc(Cl)cc4F)n3n2)n[nH]1 [gandotinib]
Outline: as §1

tozasertib = compound: Cc1cc(Nc2cc(N3CCN(C)CC3)nc(Sc3ccc(NC(=O)C4CC4)cc3)n2)n[nH]1 [tozasertib]
Outline: as §1

[4] = compound: Cc1cc(SCc2sc(-c3ccc(C(F)(F)F)cc3)nc2C)ccc1OCC(=O)O
Outline: as §1

doramapimod = compound: Cc1ccc(-n2nc(C(C)(C)C)cc2NC(=O)Nc2ccc(OCCN3CCOCC3)c3ccccc23)cc1 [doramapimod]
Outline: as §1

ispinesib = compound: Cc1ccc(C(=O)N(CCCN)[C@@H](c2nc3cc(Cl)ccc3c(=O)n2Cc2ccccc2)C(C)C)cc1 [ispinesib]
Outline: as §1

bafetinib = compound: Cc1ccc(NC(=O)c2ccc(CN3CC[C@H](N(C)C)C3)c(C(F)(F)F)c2)cc1Nc1nccc(-c2cncnc2)n1 [bafetinib]
Outline: as §1

[5] = compound: Cc1cccc(CC(=O)N2CCc3c2ccc(-c2cn(C)c4ncnc(N)c24)c3F)n1
Outline: as §1

nilotinib = compound: Cc1cn(-c2cc(NC(=O)c3ccc(C)c(Nc4nccc(-c5cccnc5)n4)c3)cc(C(F)(F)F)c2)cn1 [nilotinib]
Outline: as §1

[6] = compound: Cc1nc(Nc2n[nH]c3c2CN(C(=O)N[C@H](CN(C)C)c2ccccc2)C3(C)C)c2sccc2n1
Outline: as §1

dasatinib = compound: Cc1nc(Nc2ncc(C(=O)Nc3c(C)cccc3Cl)s2)cc(N2CCN(CCO)CC2)n1 [dasatinib]
Outline: as §1

[7] = compound: Cc1ncc(-c2ccnc(Nc3ccc(S(C)(=O)=O)cc3)n2)n1C(C)C
Outline: as §1

[8] = compound: Cn1cc(-c2ccc3c(c2)CCN3C(=O)Cc2cccc(C(F)(F)F)c2)c2c(N)ncnc21
Outline: as §1

[9] = compound: Cn1cc(-c2ccc3nnc(C(F)(F)c4ccc5ncccc5c4)n3n2)cn1
Outline: as §1

tipifarnib = compound: Cn1cncc1[C@@](N)(c1ccc(Cl)cc1)c1ccc2c(c1)c(-c1cccc(Cl)c1)cc(=O)n2C [tipifarnib]
Outline: as §1

mubritinib = compound: FC(F)(F)c1ccc(/C=C/c2nc(COc3ccc(CCCCn4ccnn4)cc3)co2)cc1 [mubritinib]
Outline: as §1

Measured: log2 fold change

COQ8A (UniProt Q8NI60)
inactive: [1] 0.024 | crizotinib -0.031 | [2] 0.033 | [3] -0.019 | duvelisib 0.04 | gandotinib 0.058 | tozasertib 0.01 | [4] 0.028 | doramapimod -0.006 | ispinesib 0.055 | bafetinib -0.088 | [5] -0.006 | nilotinib -0.055 | [6] 0.108 | dasatinib -0.244 | [7] -0.04 | [8] 0.069 | [9] -0.047 | tipifarnib -0.103 | mubritinib 0.023

COMTD1 (UniProt Q86VU5)
inactive: [1] 0.041 | crizotinib 0.092 | [2] 0.016 | [3] -0.03 | duvelisib 0.035 | gandotinib 0.077 | tozasertib 0.019 | [4] 0.067 | doramapimod 0.018 | ispinesib -0.015 | bafetinib -0.024 | [5] 0.063 | nilotinib -0.053 | [6] 0.007 | dasatinib -0.019 | [7] -0.022 | [8] 0.189 | [9] -0.088 | tipifarnib -0.02 | mubritinib 0.077

CRELD1 isoform 2 (UniProt Q96HD1)
inactive: [1] 0.259 | crizotinib -0.064 | [2] 0.151 | [3] 0.168 | duvelisib 0.101 | gandotinib -0.072 | tozasertib -0.155 | [4] 0.05 | doramapimod 0.013 | ispinesib -0.352 | bafetinib 0.047 | [5] -0.065 | nilotinib -0.298 | [6] -0.001 | dasatinib 0.052 | [7] 0.051 | [8] -0.023 | [9] 0.347 | tipifarnib 0.123 | mubritinib 0.026

CREBBP (UniProt Q92793)
inactive: [1] 0.021 | crizotinib 0.005 | [2] 0.041 | [3] -0.1 | duvelisib 0.041 | gandotinib -0.04 | tozasertib -0.043 | [4] 0.036 | doramapimod -0.009 | ispinesib 0.038 | bafetinib 0.032 | [5] -0.015 | nilotinib 0.024 | [6] -0.023 | dasatinib -0.068 | [7] -0.028 | [8] 0.068 | [9] -0.002 | tipifarnib -0.023 | mubritinib 0.011

CSNK1G3 (UniProt Q9Y6M4)
inactive: [1] 0.038 | crizotinib -0.237 | [2] -0.179 | [3] 0.154 | duvelisib -0.018 | gandotinib 0.012 | tozasertib 0 | [4] 0.067 | doramapimod 0.127 | ispinesib -0.172 | bafetinib 0.128 | [5] -0.018 | nilotinib 0.161 | [6] -0.025 | dasatinib 0.095 | [7] -0.002 | [8] 0 | [9] -0.048 | tipifarnib 0.075 | mubritinib -0.069

Reprinted from the listing (2 entries):
CRELD1 isoform 2 (UniProt Q96HD1)
inactive: [1] 0.259 | crizotinib -0.064 | [2] 0.151 | [3] 0.168 | duvelisib 0.101 | gandotinib -0.072 | tozasertib -0.155 | [4] 0.05 | doramapimod 0.013 | ispinesib -0.352 | bafetinib 0.047 | [5] -0.065 | nilotinib -0.298 | [6] -0.001 | dasatinib 0.052 | [7] 0.051 | [8] -0.023 | [9] 0.347 | tipifarnib 0.123 | mubritinib 0.026

CREBBP (UniProt Q92793)
inactive: [1] 0.021 | crizotinib 0.005 | [2] 0.041 | [3] -0.1 | duvelisib 0.041 | gandotinib -0.04 | tozasertib -0.043 | [4] 0.036 | doramapimod -0.009 | ispinesib 0.038 | bafetinib 0.032 | [5] -0.015 | nilotinib 0.024 | [6] -0.023 | dasatinib -0.068 | [7] -0.028 | [8] 0.068 | [9] -0.002 | tipifarnib -0.023 | mubritinib 0.011

Next part.

CPPED1 (UniProt Q9BRF8)
inactive: [1] 0.027 | crizotinib -0.019 | [2] 0.021 | [3] 0.011 | duvelisib 0 | gandotinib -0.031 | tozasertib -0.036 | [4] -0.064 | doramapimod -0.005 | ispinesib -0.005 | bafetinib 0.02 | [5] -0.012 | nilotinib -0.019 | [6] -0.024 | dasatinib 0.069 | [7] -0.009 | [8] 0.006 | [9] 0.033 | tipifarnib -0.025 | mubritinib 0.016

CORO1A (UniProt P31146)
inactive: [1] 0.035 | crizotinib -0.051 | [2] 0.016 | [3] -0.055 | duvelisib 0.02 | gandotinib -0.139 | tozasertib 0.064 | [4] 0.02 | doramapimod 0.015 | ispinesib -0.082 | bafetinib 0.014 | [5] -0.04 | nilotinib -0.012 | [6] -0.092 | dasatinib -0.084 | [7] 0.051 | [8] 0.196 | [9] 0.001 | tipifarnib 0.002 | mubritinib 0.076

CSDE1 isoform 4 (UniProt O75534)
inactive: [1] -0.001 | crizotinib -0.101 | [2] -0.199 | [3] 0.321 | duvelisib -0.073 | gandotinib 0.058 | tozasertib 0.071 | [4] 0.128 | doramapimod 0.158 | ispinesib -0.306 | bafetinib 0.133 | [5] 0.051 | nilotinib -0.11 | [6] -0.176 | dasatinib -0.013 | [7] -0.025 | [8] -0.097 | [9] -0.15 | tipifarnib -0.023 | mubritinib -0.198

CRBN (UniProt Q96SW2)
inactive: [1] -0.024 | crizotinib 0.014 | [2] 0.019 | [3] -0.022 | duvelisib 0.06 | gandotinib -0.034 | tozasertib 0.023 | [4] -0.043 | doramapimod -0.009 | ispinesib -0.007 | bafetinib -0.05 | [5] -0.009 | nilotinib 0 | [6] 0.017 | dasatinib -0.032 | [7] -0.017 | [8] 0.011 | [9] 0.017 | tipifarnib 0.056 | mubritinib 0.046

COPRS (UniProt Q9NQ92)
inactive: [1] -0.066 | crizotinib 0.03 | [2] 0.017 | [3] -0.026 | duvelisib 0.102 | gandotinib -0.045 | tozasertib -0.011 | [4] 0.043 | doramapimod 0.072 | ispinesib 0.004 | bafetinib -0.008 | [5] -0.051 | nilotinib -0.013 | [6] 0.009 | dasatinib 0.089 | [7] -0.005 | [8] 0.078 | [9] -0.041 | tipifarnib 0 | mubritinib 0.048

COMMD5 (UniProt Q9GZQ3)
inactive: [1] 0.03 | crizotinib -0.021 | [2] 0.143 | [3] -0.013 | duvelisib 0.049 | gandotinib -0.081 | tozasertib 0.022 | [4] 0.02 | doramapimod 0.039 | ispinesib 0.021 | bafetinib -0.002 | [5] 0.022 | nilotinib -0.022 | [6] -0.005 | dasatinib -0.013 | [7] -0.011 | [8] 0.032 | [9] 0.054 | tipifarnib -0.038 | mubritinib 0

COPE (UniProt O14579)
inactive: [1] 0.031 | crizotinib 0.067 | [2] 0.092 | [3] 0.145 | duvelisib 0.048 | gandotinib 0.011 | tozasertib 0.073 | [4] -0.007 | doramapimod 0.01 | ispinesib 0.061 | bafetinib -0.007 | [5] -0.034 | nilotinib -0.013 | [6] -0.019 | dasatinib -0.03 | [7] -0.016 | [8] -0.076 | [9] -0.045 | tipifarnib 0.011 | mubritinib 0.046

COPS5 (UniProt Q92905)
inactive: [1] -0.031 | crizotinib -0.001 | [2] 0.026 | [3] -0.05 | duvelisib 0.009 | gandotinib -0.065 | tozasertib 0.011 | [4] -0.007 | doramapimod -0.018 | ispinesib 0.047 | bafetinib 0.024 | [5] 0.004 | nilotinib 0.008 | [6] -0.013 | dasatinib -0.013 | [7] -0.009 | [8] 0.061 | [9] -0.007 | tipifarnib -0.021 | mubritinib 0.049

CRELD2 isoform 5 (UniProt Q6UXH1)
inactive: [1] 0 | crizotinib 0.063 | [2] -0.084 | [3] -0.007 | duvelisib 0.03 | gandotinib 0.004 | tozasertib -0.015 | [4] -0.043 | doramapimod 0.063 | ispinesib 0.008 | bafetinib -0.095 | [5] -0.055 | nilotinib 0.019 | [6] -0.089 | dasatinib -0.01 | [7] -0.027 | [8] 0.027 | [9] 0.026 | tipifarnib 0.109 | mubritinib 0.004

COLGALT1 (UniProt Q8NBJ5)
inactive: [1] 0.038 | crizotinib 0.075 | [2] -0.038 | [3] 0.15 | duvelisib -0.104 | gandotinib 0.101 | tozasertib 0.042 | [4] 0.051 | doramapimod 0.081 | ispinesib -0.029 | bafetinib 0.094 | [5] 0.025 | nilotinib -0.008 | [6] 0.07 | dasatinib 0.003 | [7] -0.036 | [8] -0.101 | [9] -0.017 | tipifarnib 0.077 | mubritinib -0.089

COX4I1 (UniProt P13073)
inactive: [1] -0.036 | crizotinib 0.036 | [2] 0.002 | [3] -0.044 | duvelisib 0.007 | gandotinib -0.007 | tozasertib -0.008 | [4] -0.025 | doramapimod 0.005 | ispinesib 0.015 | bafetinib -0.021 | [5] -0.018 | nilotinib 0.015 | [6] 0.044 | dasatinib 0.048 | [7] -0.039 | [8] 0.013 | [9] -0.005 | tipifarnib 0.026 | mubritinib 0.019
